According to paper PMC3899953:
These are yes or no findings as the source states them, for the method shown. Binding seen in cells or lysates may run through a third protein. Some entries that bind do so weakly or less than the wild type. Where a sequence is shown, tags or fusion partners need not be part of it.

Assays:
[1] = target: T1, myc-tagged Rtg2 (RTG2-myc3, strain RBY915) (S. cerevisiae) (UniProt P32608); assay: co-IP; Rtg2-myc precipitated with anti-myc antibody 9E10 and protein G-Sepharose from yeast lysates (~1.6 mg protein) in IP buffer (20 mM Hepes-KOH pH 7.6, 150 mM KCl, 10 mM MgCl, 0.5% Triton X-100), 4 °C; Mks1-HA detected by anti-HA blot; in Figure 1 lysates were first incubated 1.5 h with 0, 1, 2 or 5 mM ATP, 5 mM ADP or 5 mM AMP-PNP
T1 sequence: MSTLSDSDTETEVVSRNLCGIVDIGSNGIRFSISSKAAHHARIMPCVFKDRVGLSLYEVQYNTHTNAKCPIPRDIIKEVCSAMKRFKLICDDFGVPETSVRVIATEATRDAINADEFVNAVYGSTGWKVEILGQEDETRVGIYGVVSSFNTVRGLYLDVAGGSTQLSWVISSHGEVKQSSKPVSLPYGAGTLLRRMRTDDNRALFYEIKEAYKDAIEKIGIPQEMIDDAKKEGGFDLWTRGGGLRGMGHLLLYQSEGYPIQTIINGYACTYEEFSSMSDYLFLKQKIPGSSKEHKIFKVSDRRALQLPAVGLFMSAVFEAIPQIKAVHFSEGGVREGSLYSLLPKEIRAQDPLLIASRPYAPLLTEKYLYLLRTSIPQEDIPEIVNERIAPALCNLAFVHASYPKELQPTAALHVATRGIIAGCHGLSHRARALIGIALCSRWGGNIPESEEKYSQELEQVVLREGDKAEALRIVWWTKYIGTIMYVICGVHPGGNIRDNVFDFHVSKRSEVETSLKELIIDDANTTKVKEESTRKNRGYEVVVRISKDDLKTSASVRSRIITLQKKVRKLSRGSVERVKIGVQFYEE

[2] = target: T2, myc-tagged Rtg2 (pRS415-RTG2-myc, pZL1951) (S. cerevisiae) (UniProt P32608); assay: as above
T2 sequence: T1 sequence

binding [1]: binds
binding [2]: binds
B1: HA-tagged Mks1 (pRS416-MKS1p-MKS1-HA, pZL1480) (protein, UniProt P34072 1-584)
chain: MSREAFDVPNIGTNKFLKVTPNLFTPERLNLFDDVELYLTLIKASKCVEQGERLHNISWRILNKAVLKEHNINRSKKRDGVKNIYYVLNPNNKQPIKPKQAAVKQPPLQKANLPPTTAKQNVLTRPMTSPAIAQGAHDRSLDNPNSTNNDVKNDVAPNRQFSKSTTSGLFSNFADKYQKMKNVNHVANKEEPQTIITGFDTSTVITKKPLQSRRSRSPFQHIGDMNMNCIDNETSKSTSPTLENMGSRKSSFPQKESLFGRPRSYKNDQNGQLSLSKTSSRKGKNKIFFSSEDEDSDWDSVSNDSEFYADEDDEEYDDYNEEEADQYYRRQWDKLLFAKNQQNLDSTKSSVSSANTINSNTSHDPVRKSLLSGLFLSEANSNSNNHNTAHSEYASKHVSPTPQSSHSNIGPQPQQNPPSANGIKQQKPSLKTSNVTALASLSPPQPSNNERLSMDIQKDFKTDNESNHLYESNAPLTAQTILPTALSTHMFLPNNIHQQRMAIATGSNTRHRFSRRQSMDIPSKNRNTGFLKTRMEISEEEKMVRTISRLDNTSIANSNGNGNDDTSNQRTEALGRKTSNGGRI
